Assay results: article PMC7283462
No constants are given. Whether binding was seen depends on the method and setting. Binding seen in cells or lysates may run through a third protein. A result given as binding can be weak or reduced; the word gives no strength. Where a sequence is shown, tags or fusion partners need not be part of it.

What was measured:
[1] = target: GFP-Cap (porcine circovirus type 2, strain HZ0201); test: co-IP; HEK293T co-transfected with FLAG-tagged host protein and GFP-Cap or Myc-Cap for 48 h; NP-40 lysates immunoprecipitated with anti-FLAG beads, anti-GFP or anti-Myc mAbs; western blot
[2] = target: Myc-Cap (porcine circovirus type 2, strain HZ0201); test: as above

B1: FLAG-MX2 (protein, UniProt A7VK00 1-711)
chain: MPKPRMSWPYQRHRQASSPPHPHKEMNFFPQQPLPLGAGPGQMTFPLNWQMGGKDLTKGLNMLTLSPQQPGGKSGQQTSKGPENNLYSPFEEKVRPCIDLIDSLRALGVEQDLALPTIAVIGDQSSGKSSVLEALSGVPLPRGSGIITRCPLALRLKKKECPWQGRISYRKVELQLQDPSQVEREIRKAQDAIAGSGVGISHELISLEVTSPEVPDLTLIDLPGITRVAVGNQPQDIGLQIKALIRKYIQEQQTINLVVVPCNVDIATTEALRMAQEVDPEGDRTIGILTKPDLVDTGAEKVVLNVMQNLTYHLKKGYMIVKCRGQQEILNKLSLAEATKREIAFFHSHPHFRILLEEGKATVPRLAERLTVELIGHISKSLPLLFSQIKEIHQSATEELRLCGASVPSNDADKMFFLIEKIKVFNQDIENLAEGEEIVKEKEARLYNKIREEFKSWIVTLDCNSKKVKNIIHEEVSKYDRQYRGKELMGFVSYKTFESIVRQYLEELVDPALGMLQTVVEIVRQTFSDTAQKNFGEFSNLNQTTQNKVDSIAARAAERAEGLIRLQFRMEQLVFCQDDIYRVDLKAVREELFNPVAEHPQSLQLRLPFVNGPSPVSSITEIGVHVNAYFMGTSQRLANQIPFIIQYCVLQESRDHLQKAMMQMLQGREQYSWLLQEESHTSAKRHFLKEKIHRLAEARHTLSKFAQSLQG
B1 was tested, and the binding [1] was “binds” and the binding [2] was “binds”.
